The values that follow are results of earlier work, collected in patent publication US6586413B2, “Methods and compositions for reducing ischemic injury of the heart by administering adenosine receptor agonists and antagonists” (The United States of America as represented by the …, priority 1999, dated 2003).

Structures are written as SMILES. The match of structure and compound is tentative.

This data set concerns the target A3 receptor. The settings on record: read-out: A3; Table II; cited from earlier work.

Consider `CCNC(=O)[C@H]1O[C@@H](n2cnc3c(NCc4ccc([N+](=O)[O-])cc4)ncnc32)[C@H](O)[C@@H]1O`, for which the Ki was 9 nM.
